# Measurements from PubChem BioAssay AID504834 (National Center for Advancing Translational Sciences (NCATS), 2011).
# Hit rate of the full screen: of about 320,000 compounds, about 22,000 (6.9%) were called active. This list was built around the results that the source calls inconclusive (neither active nor inactive); the mix of calls is not that of the screen. The call rests on the fitted dose curve; in most records, active means well fitted inhibition curve with a large enough effect; inconclusive means small, poorly fitted or top-dose-only effect, or another doubt; inactive means no such curve, though single readings can be large or run the other way. Potencies beside an inconclusive call are fits to weak or partial responses and may not hold up.
# Experiment: Primary qHTS for delayed death inhibitors of the malarial parasite plastid, 96 hour incubation
# Conditions: P. falciparum luciferase reporter growth; series mostly up to 28.7 µM; activity change, negative = inhibition: at the top concentration
# Procedure, shortened: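 96 h incubation, 37 C, 5% CO2, of luciferase-reporter P. falciparum-infected RBCs (2% hematocrit, 0.05% parasitemia final) with test compounds; endpoint luminescence.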
# On the % scale 0 is the no-effect control and ±100 the full control effect; potency means the concentration at half of the fitted maximal effect.
SMILES,Potency,"activity change, negative = inhibition"
CCC1CCCCN1C(=O)COc1ccc2c3c(c(=O)oc2c1)CCC3 (stereo unspecified),"inconclusive: 7.38 µM [inhibitor, partial curve, poor fit]",
O=C(CSc1n[nH]c(-c2ccccc2O)n1)N1CCOCC1,"inconclusive: 9.28 µM [inhibitor, single point]",
CCN(CC(=O)Nc1ccccc1Br)C1CCCCC1,"inconclusive: 18.5 µM [inhibitor, single point]",
O=C(NC1CCCCC1)N(CCO)Cc1cc2cc3c(cc2[nH]c1=O)OCCO3,"inconclusive: 18.5 µM [inhibitor, single point]",
Cc1ccc(C(c2nnnn2CS(=O)(=O)c2ccc(C)cc2)N2CCC(C)CC2)cc1 (stereo unspecified),"inconclusive: 10.4 µM [inhibitor, single point]",
COc1cc2c(cc1OC)[C@@]13CCN4CC5=CCO[C@H]6CC(=O)N2[C@H]1[C@H]6[C@H]5C[C@H]43,"inconclusive: 8.28 µM [inhibitor, partial curve]",
Cc1ccc(S(=O)(=O)Cc2ccc(C(=O)N3CCc4ccccc4C3)o2)cc1,active: 13.1 µM,
CSc1ccccc1OCc1cc(C(=O)N2CCN(C3CCCC3)C(=O)C2)no1,"inconclusive: 18.5 µM [inhibitor, single point]",
Cc1ccc(OC[C@H](O)[C@H](C)NC(C)C)c2c1CCC2,"inconclusive: 18.5 µM [inhibitor, single point]",
CC(C)(C)N(Cc1ccccc1)C(=O)c1cccs1,"inconclusive: 10.4 µM [inhibitor, single point]",
O=C(O)c1cc(S(=O)(=O)Nc2cc(Cl)ccc2Oc2ccccc2)ccc1O,,inactive: 13.2%
C=CCN1c2ccccc2[C@]23C[C@@H](C(=O)OC)N(C(=O)c4cc(C)oc4C)C2=NC(C(=O)OC)=C(C(=O)OC)[C@H]13,"inconclusive: 18.5 µM [inhibitor, single point]",
CC(C)NS(=O)(=O)c1ccc(CCC(=O)NCc2cccnc2)cc1,"inconclusive: 14.7 µM [inhibitor, partial curve]",
Cc1ccc(C(=O)N2NC(c3ccccc3F)C3C(=O)N(c4cccc(C)c4)C(=O)C32)cc1 (stereo unspecified),active: 2.08 µM,
Cn1cc(CC(=O)NCCN2CCOCC2)c2ccccc21,"inconclusive: 10.4 µM [inhibitor, partial curve]",
O=C(Nc1ccccc1C(=O)Nc1ccccn1)c1ccccc1F,,inactive: -10.1%
CCCN1CCN(C(=O)C2CCN(c3nnc(C)c4c(C)n(-c5ccc(C)cc5)nc34)CC2)CC1,"inconclusive: 10.4 µM [inhibitor, single point]",
COC(=O)c1cccc(Cn2c(Cl)c(/C=N/NC(=O)c3ccco3)sc2=O)c1,active: 8.28 µM,
CCN(CC)CCN(Cc1cc2cc(C)ccc2[nH]c1=O)C(=S)NCc1ccco1,"inconclusive: 13.1 µM [inhibitor, partial curve, poor fit]",
COc1ccc2nc(NCCO)[nH]c2c1,"inconclusive: 8.28 µM [inhibitor, partial curve, poor fit]",
CCCc1c(C(=O)N/N=C/c2ccccc2C(F)(F)F)nnn1-c1nonc1N,"inconclusive: 9.28 µM [inhibitor, partial curve]",
CCOC(=O)Nc1ccc2c(c1)N(C(=O)CCN(C)C)c1ccccc1S2,,inactive: -5.55%
CC(=O)c1ccc(N2CCN(S(=O)(=O)c3ccc4c(c3)CC(C)N4C(=O)C3CC3)CC2)cc1 (stereo unspecified),"inconclusive: 18.5 µM [inhibitor, single point]",
O=C(NCc1ccco1)c1nc2c(nnn2Cc2ccccc2Cl)c(=O)[nH]1,,inactive: 0.398%

SMILES,Potency,"activity change, negative = inhibition"
Cc1c(NC(=S)/C=C2\N(C)c3ccccc3C2(C)C)c(=O)n(-c2ccccc2)n1C,,inactive: 1.33%
O=C(OC1C2CCC1C1CN(CCc3ccccc3)CC12)c1ccccc1 (stereo unspecified),"inconclusive: 18.5 µM [inhibitor, single point]",
CN(C)c1ccc(Nc2c3c4c(cccc4n(C)c2=O)C(=O)c2ccccc2-3)cc1,active: 5.22 µM,
O=C(Nc1cccc2ccccc12)c1ccccc1NS(=O)(=O)c1cccc2cccnc12,,inactive: 12.3%
CCN(CC(=O)Nc1ccc(OC)cc1)C(=O)CN1C(=O)NC(C)(c2ccc3ccccc3c2)C1=O (stereo unspecified),,inactive: -7.88%
CN1C(=O)C(Cl)(Cl)C(=O)c2ccccc21,,inactive: 21.3%
CCOCN(C(=O)CCl)c1c(C)cccc1CC,"inconclusive: 10.4 µM [inhibitor, single point]",
O=C(NC1CC2CCCC(C1)N2C(=O)Nc1ccccc1)c1ccccc1 (stereo unspecified),"inconclusive: 5.86 µM [inhibitor, partial curve, poor fit]",
CS(=O)(=O)Nc1ccc(OCc2ccccc2)cc1,,inactive: 11%
O=C(CSc1ccccn1)Nc1nc2ccccc2s1,active: 2.94 µM,
O=C(COC(=O)c1ccc([N+](=O)[O-])o1)c1ccccc1,"inconclusive: 0.208 µM [inhibitor, full curve, poor fit]",
NC(=NC(=O)c1ccc(Cl)cc1)N1N=CCC1c1ccccc1 (stereo unspecified),"inconclusive: 0.233 µM [inhibitor, partial curve, poor fit]",
CCc1ccc(O)c(-c2cc(C(=O)Nc3cccnc3)[nH]n2)c1,active: 0.415 µM,
COc1cc(NC(=O)COc2ccc(Cl)cc2)ccc1-c1cc2ccccc2oc1=O,active: 4.15 µM,
CCOc1cc(OCC)cc(C(=O)NC(=S)Nc2cccc(C(F)(F)F)c2)c1,,inactive: 0%
O=C(/C=C/c1ccccc1F)c1cccc([N+](=O)[O-])c1,,inactive: 23.4%
CCOc1ccccc1NC(=O)C(Sc1nnc2ccccn12)c1ccccc1 (stereo unspecified),"inconclusive: 18.5 µM [inhibitor, single point]",
CC(Cc1ccsc1)NCc1cn[nH]c1-c1ccc(F)cc1F (stereo unspecified),"inconclusive: 5.86 µM [inhibitor, partial curve, poor fit]",
CCC(C)(C)n1nnnc1C(c1cc2cc(C)ccc2[nH]c1=O)N1CCCc2ccccc21 (stereo unspecified),"inconclusive: 10.4 µM [inhibitor, partial curve, poor fit]",
Cc1ccccc1CSCc1ccc(C(=O)NCCCN2CCOCC2)o1,,inactive: 0%
Cc1nn(-c2ccccc2)c(-c2ccccc2)c1C(=O)O,"inconclusive: 18.5 µM [inhibitor, partial curve, poor fit]",
COc1ccccc1-n1c(O)c(C=NCc2ccc3c(c2)OCO3)c(=O)[nH]c1=O,"inconclusive: 14.7 µM [inhibitor, single point]",
O=C(Cc1ccc(Br)cc1)N1CCN(c2ccccc2)CC1,,inactive: 49.6%
CCC(C)N(C)Cc1cccc(C2(O)CCN(S(=O)(=O)c3ccc(F)c(C)c3)CC2)c1 (stereo unspecified),"inconclusive: 11.7 µM [inhibitor, partial curve, poor fit]",

# Quoted from the results shown (16 entries):
SMILES,Potency,"activity change, negative = inhibition"
O=C(OC1C2CCC1C1CN(CCc3ccccc3)CC12)c1ccccc1 (stereo unspecified),"inconclusive: 18.5 µM [inhibitor, single point]",
CN(C)c1ccc(Nc2c3c4c(cccc4n(C)c2=O)C(=O)c2ccccc2-3)cc1,active: 5.22 µM,
O=C(Nc1cccc2ccccc12)c1ccccc1NS(=O)(=O)c1cccc2cccnc12,,inactive: 12.3%
CCN(CC(=O)Nc1ccc(OC)cc1)C(=O)CN1C(=O)NC(C)(c2ccc3ccccc3c2)C1=O (stereo unspecified),,inactive: -7.88%
CN1C(=O)C(Cl)(Cl)C(=O)c2ccccc21,,inactive: 21.3%
CCOCN(C(=O)CCl)c1c(C)cccc1CC,"inconclusive: 10.4 µM [inhibitor, single point]",
O=C(NC1CC2CCCC(C1)N2C(=O)Nc1ccccc1)c1ccccc1 (stereo unspecified),"inconclusive: 5.86 µM [inhibitor, partial curve, poor fit]",
CS(=O)(=O)Nc1ccc(OCc2ccccc2)cc1,,inactive: 11%
O=C(CSc1ccccn1)Nc1nc2ccccc2s1,active: 2.94 µM,
O=C(COC(=O)c1ccc([N+](=O)[O-])o1)c1ccccc1,"inconclusive: 0.208 µM [inhibitor, full curve, poor fit]",
NC(=NC(=O)c1ccc(Cl)cc1)N1N=CCC1c1ccccc1 (stereo unspecified),"inconclusive: 0.233 µM [inhibitor, partial curve, poor fit]",
CCc1ccc(O)c(-c2cc(C(=O)Nc3cccnc3)[nH]n2)c1,active: 0.415 µM,
COc1cc(NC(=O)COc2ccc(Cl)cc2)ccc1-c1cc2ccccc2oc1=O,active: 4.15 µM,
CCOc1cc(OCC)cc(C(=O)NC(=S)Nc2cccc(C(F)(F)F)c2)c1,,inactive: 0%
O=C(/C=C/c1ccccc1F)c1cccc([N+](=O)[O-])c1,,inactive: 23.4%
CCOc1ccccc1NC(=O)C(Sc1nnc2ccccn12)c1ccccc1 (stereo unspecified),"inconclusive: 18.5 µM [inhibitor, single point]",

# Later entries.

SMILES,Potency,"activity change, negative = inhibition"
Oc1ccc(N=Nc2c(O)ccc3ccccc23)cc1,"inconclusive: 18.5 µM [inhibitor, single point]",
O=C(N/N=C\c1ccc[nH]1)c1cncc(Br)c1,,inactive: 18%
CCCn1c(N)c(C(=O)CSc2nc(N)cc(=O)[nH]2)c(=O)n(C)c1=O,active: 4.65 µM,
CCOC(=O)C(C)(C)N(Cc1ccc(C)cc1)S(=O)(=O)c1ccc(Cl)c([N+](=O)[O-])c1,"inconclusive: 14.7 µM [inhibitor, partial curve, poor fit]",
NC(=O)COc1ccccc1,,inactive: 10.7%
O=C(/C=C/c1cc[n+](CC(=O)c2ccc3cccc4c3c2CC4)cc1)c1ccc2cccc3c2c1CC3,,inactive: -1.19%
O=C(Nc1ccc(Oc2cccc(C(F)(F)F)c2)nc1)c1ccccc1,active: 14.7 µM,
COC(=O)c1ccc(CNC(=O)c2cc3ccccc3oc2=O)cc1,,inactive: 9.41%
Cc1ccccc1NC(=O)Nc1ccccc1Br,,inactive: 0.324%
CC(=O)Nc1ccc(S(=O)(=O)Nc2nnc(C3CCCCC3)s2)cc1,"inconclusive: 11.7 µM [inhibitor, single point]",
O=C(c1ccc2ccccc2c1)N1CCN(c2ccccn2)CC1,"inconclusive: 20.8 µM [inhibitor, single point]",
CCOC(=O)C(C)Oc1ccc2c(C)cc(=O)oc2c1C(C)=O (stereo unspecified),"inconclusive: 18.5 µM [inhibitor, single point]",
CC(C)(C)n1ncc2c(=O)n(CC(=O)Nc3ccc4c(c3)OCO4)cnc21,"inconclusive: 20.8 µM [inhibitor, single point]",
Cc1nnc(SCC(=O)N2CCN(c3cccc(Cl)c3)CC2)n1C1CC1,"inconclusive: 18.5 µM [inhibitor, single point]",
CN(C(=O)CCl)C1CCCc2ccccc21 (stereo unspecified),"inconclusive: 14.7 µM [inhibitor, single point]",
COc1ccc(C(=O)Nc2cc(Cl)ccc2C(=O)O)cc1,"inconclusive: 10.4 µM [inhibitor, single point]",
CCN(CC)C1CCN(C(=O)c2ccc(OC3CCN(CCc4ccccc4)CC3)cc2)C1 (stereo unspecified),,inactive: 32.9%
O=c1[nH]c(=S)n(CCC2=CCCCC2)c(O)c1C=NC1CCN(Cc2ccccc2)CC1,"inconclusive: 18.5 µM [inhibitor, single point]",
CCN1C(=S)SC(=O)C1=C1C=C(C)N(CCOC)C(C)=C1,"inconclusive: 13.1 µM [inhibitor, partial curve]",
COc1ccc(-c2oc3cccnc3c2C#CC2(O)CCCCC2)cc1,"inconclusive: 11.7 µM [inhibitor, single point]",
CCCN(CC#CC(O)(c1ccccc1)c1cccnc1)CCC (stereo unspecified),,inactive: 0%
COc1ccc(-n2nnnc2SCC(=O)N2CCN(C(=O)c3ccco3)CC2)cc1OC,"inconclusive: 8.28 µM [inhibitor, single point]",
O=C(c1ccccc1)N1CCN(S(=O)(=O)c2ccc(Cl)c(C(F)(F)F)c2)CC1,"inconclusive: 18.5 µM [inhibitor, single point]",

# Ordered by formula weight (rising): three of the compounds above.
SMILES,Potency,"activity change, negative = inhibition"
O=C(COC(=O)c1ccc([N+](=O)[O-])o1)c1ccccc1,"inconclusive: 0.208 µM [inhibitor, full curve, poor fit]",
CC(C)NS(=O)(=O)c1ccc(CCC(=O)NCc2cccnc2)cc1,"inconclusive: 14.7 µM [inhibitor, partial curve]",
CCC(C)(C)n1nnnc1C(c1cc2cc(C)ccc2[nH]c1=O)N1CCCc2ccccc21 (stereo unspecified),"inconclusive: 10.4 µM [inhibitor, partial curve, poor fit]",
